Assay results taken from PMC9838217, “Structure of SALL4 zinc finger domain reveals link between AT-rich DNA binding and Okihiro syndrome”.
The exact form of at least one protein or probe is not confirmed. At least one verdict was read from the data and is not stated in words by the source. Protein sequences can lack the tags named with them.

Molecular target: T1, SALL4 ZFC4 WT (Mus musculus) (UniProt Q8BX22)
T1 sequence (looked up): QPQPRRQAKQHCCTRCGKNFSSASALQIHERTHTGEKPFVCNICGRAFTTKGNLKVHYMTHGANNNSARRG
Experiment: SAXS
Conditions: ZFC4-dsDNA complex; recombinant protein; residues 870-940

“CATATTAATATC (double strand) [SAXS AT-rich dsDNA]”: binds.
